# Data: the supplement of paper PMC4604168 (melanoma cell lines)
# This is one part of the list. Repeats are few or missing, and single values can be far off.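 Cells were imaged in 1,536-well plates, and nuclei stained with an antibody against cleaved PARP were counted against all DNA-stained nuclei to give the apoptosis fraction. Screening doses were chosen to leave most cells alive, and resting and induced cleaved-PARP levels differ strongly between cell lines.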
# Experiments:
# Test in all cases: cleaved PARP positive nuclei fraction relative to DMSO control; melanoma cells; higher = more apoptosis
# Details in all cases: library dose: low library concentration; 72 h
# [1] = tested on: WM115
# [2] = tested on: WM1716
# [3] = tested on: WM1745
# [4] = tested on: WM3526
# [5] = tested on: WM3619
# [6] = tested on: WM451Lu
SMILES,cleaved PARP positive nuclei fraction [1] [%],cleaved PARP positive nuclei fraction [2] [%],cleaved PARP positive nuclei fraction [3] [%],cleaved PARP positive nuclei fraction [4] [%],cleaved PARP positive nuclei fraction [5] [%],cleaved PARP positive nuclei fraction [6] [%]
"Cc1cn(-c2cc(NC(=O)c3ccc(C)c(Nc4nccc(-c5cccnc5)n4)c3)cc(C(F)(F)F)c2)cn1 [nilotinib] + Cc1cc(Nc2cc(N3CCN(C)CC3)nc(/C=C/c3ccccc3)n2)n[nH]1 [ENMD2076] (first compound 0.2 µM, partner dose 0.04 µM)",43.2,158,111,47.8,79.4,52.5
"COc1cc([C@@H]2c3cc4c(cc3[C@@H](O[C@@H]3O[C@@H]5CO[C@@H](C)O[C@H]5[C@H](O)[C@H]3O)[C@H]3COC(=O)[C@H]23)OCO4)cc(OC)c1O [etoposide] + CO[C@H]1C[C@@H]2CC[C@@H](C)[C@@](O)(O2)C(=O)C(=O)N2CCCC[C@H]2C(=O)O[C@H]([C@H](C)C[C@@H]2CC[C@@H](OCCO)[C@H](OC)C2)CC(=O)[C@H](C)/C=C(\C)[C@@H](O)[C@@H](OC)C(=O)[C@H](C)C[C@H](C)/C=C/C=C/C=C/1C [everolimus] (first compound 0.02 µM, partner dose 0.02 µM)",109,45.3,103,73.4,144,41.3
"O=C(Nc1cc(C(F)(F)F)cc(C(F)(F)F)c1)c1cc(Cl)ccc1O + Cn1c(Nc2ccc(C(F)(F)F)cc2)nc2cc(Oc3ccnc(-c4ncc(C(F)(F)F)[nH]4)c3)ccc21 [CHIR265] (first compound 0.016 µM, partner dose 0.08 µM)",573,69,118,173,111,45.6
"Cc1ccc(Nc2nccc(N(C)c3ccc4c(C)n(C)nc4c3)n2)cc1S(N)(=O)=O [Pazopanib] + NC1(c2ccc(-c3nc4ccn5c(=O)[nH]nc5c4cc3-c3ccccc3)cc2)CCC1 [MK2206] (first compound 0.4 µM, partner dose 0.4 µM)",86.1,46.3,98.4,146,81.8,60
"Cc1cc(Nc2cc(N3CCN(C)CC3)nc(Sc3ccc(NC(=O)C4CC4)cc3)n2)n[nH]1 [Tozasertib] + CO[C@@H]1[C@H](N(C)C(=O)c2ccccc2)C[C@H]2O[C@]1(C)n1c3ccccc3c3c4c(c5c6ccccc6n2c5c31)C(=O)NC4 [Midostaurin] (first compound 0.006 µM, partner dose 0.08 µM)",174,51.7,124,56.1,111,56
"CC[C@]1(O)C[C@H]2CN(CCc3c([nH]c4ccccc34)[C@@](C(=O)OC)(c3cc4c(cc3OC)N(C=O)[C@H]3[C@@](O)(C(=O)OC)[C@H](OC(C)=O)[C@]5(CC)C=CCN6CC[C@]43[C@@H]65)C2)C1 [vincristine] + NC(=O)Nc1cc(-c2cccc(F)c2)sc1C(=O)N[C@H]1CCCNC1 [AZD7762] (first compound 0.0001 µM, partner dose 0.02 µM)",1240,512,92.9,134,212,75.1
"Cc1ccc(Nc2nccc(N(C)c3ccc4c(C)n(C)nc4c3)n2)cc1S(N)(=O)=O [Pazopanib] + CO[C@H]1C[C@@H]2CC[C@@H](C)[C@@](O)(O2)C(=O)C(=O)N2CCCC[C@H]2C(=O)O[C@H]([C@H](C)C[C@@H]2CC[C@@H](OCCO)[C@H](OC)C2)CC(=O)[C@H](C)/C=C(\C)[C@@H](O)[C@@H](OC)C(=O)[C@H](C)C[C@H](C)/C=C/C=C/C=C/1C [everolimus] (first compound 0.4 µM, partner dose 0.02 µM)",48.4,963,97.7,57.3,115,103
"O=c1[nH]nc(Sc2ncc([N+](=O)[O-])s2)n1-c1ccc2c(c1)OCCO2 + Oc1cc(-c2nc(-c3ccccc3)[nH]c2-c2ccncc2)ccc1Cl [L779450] (first compound 0.2 µM, partner dose 0.2 µM)",92.5,61.2,102,258,84.7,67.1
"CC[C@]1(O)C[C@H]2CN(CCc3c([nH]c4ccccc34)[C@@](C(=O)OC)(c3cc4c(cc3OC)N(C=O)[C@H]3[C@@](O)(C(=O)OC)[C@H](OC(C)=O)[C@]5(CC)C=CCN6CC[C@]43[C@@H]65)C2)C1 [vincristine] + CO[C@H]1C[C@@H]2CC[C@@H](C)[C@@](O)(O2)C(=O)C(=O)N2CCCC[C@H]2C(=O)O[C@H]([C@H](C)C[C@@H]2CC[C@@H](OCCO)[C@H](OC)C2)CC(=O)[C@H](C)/C=C(\C)[C@@H](O)[C@@H](OC)C(=O)[C@H](C)C[C@H](C)/C=C/C=C/C=C/1C [everolimus] (first compound 0.0001 µM, partner dose 0.02 µM)",2350,189,129,71.6,207,203
"Cc1cn(-c2cc(NC(=O)c3ccc(C)c(Nc4nccc(-c5cccnc5)n4)c3)cc(C(F)(F)F)c2)cn1 [nilotinib] + Cn1sc(=O)n(Cc2ccccc2)c1=O [TDZD-8] (first compound 0.2 µM, partner dose 0.4 µM)",85.7,56.7,101,283,67.6,80.4
"CC[C@]1(O)C[C@H]2CN(CCc3c([nH]c4ccccc34)[C@@](C(=O)OC)(c3cc4c(cc3OC)N(C=O)[C@H]3[C@@](O)(C(=O)OC)[C@H](OC(C)=O)[C@]5(CC)C=CCN6CC[C@]43[C@@H]65)C2)C1 [vincristine] + C=CCNC1=C2C[C@@H](C)C[C@H](OC)[C@H](O)[C@@H](C)/C=C(\C)[C@H](OC(N)=O)[C@@H](OC)/C=C\C=C(/C)C(=O)NC(=CC1=O)C2=O [Tanespimycin] (first compound 0.0001 µM, partner dose 0.002 µM)",637,178,104,82.9,211,83.3
"O=c1[nH]nc(Sc2ncc([N+](=O)[O-])s2)n1-c1ccc2c(c1)OCCO2 + O=C(Nc1ccccc1)c1cc([N+](=O)[O-])ccc1Cl [GW9662] (first compound 0.2 µM, partner dose 2 µM)",70.9,156,89.9,82.2,97.2,69.8

# As entered above:
# In cleaved PARP positive nuclei fraction [6] [%], COc1cc([C@@H]2c3cc4c(cc3[C@@H](O[C@@H]3O[C@@H]5CO[C@@H](C)O[C@H]5[C@H](O)[C@H]3O)[C@H]3COC(=O)[C@H]23)OCO4)cc(OC)c1O [etoposide] + CO[C@H]1C[C@@H]2CC[C@@H](C)[C@@](O)(O2)C(=O)C(=O)N2CCCC[C@H]2C(=O)O[C@H]([C@H](C)C[C@@H]2CC[C@@H](OCCO)[C@H](OC)C2)CC(=O)[C@H](C)/C=C(\C)[C@@H](O)[C@@H](OC)C(=O)[C@H](C)C[C@H](C)/C=C/C=C/C=C/1C [everolimus] (first compound 0.02 µM, partner dose 0.02 µM) reads 41.3
# In cleaved PARP positive nuclei fraction [4] [%], Cc1cc(Nc2cc(N3CCN(C)CC3)nc(Sc3ccc(NC(=O)C4CC4)cc3)n2)n[nH]1 [Tozasertib] + CO[C@@H]1[C@H](N(C)C(=O)c2ccccc2)C[C@H]2O[C@]1(C)n1c3ccccc3c3c4c(c5c6ccccc6n2c5c31)C(=O)NC4 [Midostaurin] (first compound 0.006 µM, partner dose 0.08 µM) reads 56.1
